Data reported in patent US20240189287A1, “PERIPHERALLY RESTRICTED CB1 RECEPTOR BLOCKERS AND USES THEREOF” (BIONANOSIM (BNS) LTD, priority 2021, published 2024).

System: HepG2 Cells
Assay: Cell Viability Assay in HepG2 Cells at 72 h
Type: cell-based, human
Conditions: HepG2, 72 h; read-out: Absolute IC50
Protocol: The liver plays a central role in transforming and clearing chemicals, and therefore is susceptible to toxicity of these agents. BNS808, BNS822 and other selected compounds were tested in the HepG2 assay using […] to evaluate cytotoxicity.

## CN[C@@H]1C[C@H]2O[C@@](C)([C@@H]1OC)n1c3ccccc3c3c4c(c5c6ccccc6n2c5c31)C(=O)NC4 [Staurosporine, reference compound]
  IC50: 80 nM
